From publication PMC8191293
These are yes or no findings as the source states them, for the method shown. In cells and extracts the contact can be indirect. Some results given as binding are weak or reduced against the parent protein; the word gives no strength. Tags and fused reporters may be left off the sequences shown.

Protein sequences, listed by entry. Tags and fused reporters are not part of them.
UniProt P61619: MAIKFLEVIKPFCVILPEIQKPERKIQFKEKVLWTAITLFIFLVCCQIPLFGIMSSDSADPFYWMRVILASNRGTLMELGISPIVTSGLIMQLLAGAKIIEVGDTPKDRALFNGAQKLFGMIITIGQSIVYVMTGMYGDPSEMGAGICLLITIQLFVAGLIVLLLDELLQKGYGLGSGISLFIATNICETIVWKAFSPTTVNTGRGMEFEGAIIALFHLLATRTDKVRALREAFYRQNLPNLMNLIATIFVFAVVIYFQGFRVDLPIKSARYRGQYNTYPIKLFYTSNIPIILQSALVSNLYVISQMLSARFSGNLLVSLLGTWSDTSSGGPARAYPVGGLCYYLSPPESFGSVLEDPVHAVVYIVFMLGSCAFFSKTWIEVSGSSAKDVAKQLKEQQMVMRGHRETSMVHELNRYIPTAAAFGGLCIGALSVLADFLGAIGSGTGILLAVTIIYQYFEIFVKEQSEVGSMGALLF

Molecular target: T1, L16P PMP22 (Charcot-Marie-Tooth disease variant), myc-tagged (human) (UniProt Q01453)
T1 sequence (chain, N-linked glycan at N41 (80 ± 2% of L16P PMP22 was glycosylated in HEK293 cells)): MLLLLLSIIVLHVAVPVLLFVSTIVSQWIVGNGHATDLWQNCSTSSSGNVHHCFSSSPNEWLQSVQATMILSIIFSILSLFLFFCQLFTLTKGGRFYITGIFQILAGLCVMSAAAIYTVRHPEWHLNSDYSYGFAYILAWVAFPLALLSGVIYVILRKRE
Experiment: co-sedimentation; sucrose density fractionation of HEK293 cell lysates on a 0% to 60% step-wise gradient, 200,000g, 4 h, 4 °C; fractions analysed by Western blotting for PMP22 and Sec61α

## Sec61α subunit of the translocon (from UniProt P61619 1-476)
  binding: binds
